{"source": "patent US4595757A", "about": "“N-alkylated benzo- and hetero-fused antisecretory agents” (American Home Products Corporation, priority 1984, dated 1986)", "origin": "cited, not measured here", "test_system": "(H^+ +K^+)ATPase", "conditions": "Fellenius, Nature 220, 159-160 (1981); cited from earlier work"}
{"smiles": "CN1[C@@H]2CC[C@H]1C[C@@H](OC(=O)C(CO)c1ccccc1)C2", "note": "(stereo partly shown) [atropine]", "values": [{"measurement": "inhibition of proton transport by inhibition of (H^+ +K^+)ATPase", "result": "devoid of this activity"}]}
